# Results from the supplement of paper PMC12823440, “Inhibitors supercharge kinase turnover through native proteolytic circuits” (Nature, 2025).
# Protein sequences, listed by entry. Tags and fused reporters are not part of them. Lines headed by an entry give the natural chain unless they say otherwise; changes in a name come on top.
# UniProt Q15208: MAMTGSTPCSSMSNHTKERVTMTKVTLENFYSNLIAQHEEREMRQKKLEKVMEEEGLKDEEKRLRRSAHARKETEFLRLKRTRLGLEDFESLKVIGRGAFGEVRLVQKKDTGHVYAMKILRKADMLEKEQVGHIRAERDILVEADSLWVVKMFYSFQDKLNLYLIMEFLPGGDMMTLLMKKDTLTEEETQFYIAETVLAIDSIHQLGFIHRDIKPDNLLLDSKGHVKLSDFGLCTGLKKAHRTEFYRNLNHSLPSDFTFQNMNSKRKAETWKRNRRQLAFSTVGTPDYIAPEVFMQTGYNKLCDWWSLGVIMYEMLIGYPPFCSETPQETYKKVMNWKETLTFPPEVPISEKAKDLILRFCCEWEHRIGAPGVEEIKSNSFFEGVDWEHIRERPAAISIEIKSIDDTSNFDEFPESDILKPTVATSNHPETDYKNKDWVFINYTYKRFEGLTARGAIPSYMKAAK
# UniProt P42680: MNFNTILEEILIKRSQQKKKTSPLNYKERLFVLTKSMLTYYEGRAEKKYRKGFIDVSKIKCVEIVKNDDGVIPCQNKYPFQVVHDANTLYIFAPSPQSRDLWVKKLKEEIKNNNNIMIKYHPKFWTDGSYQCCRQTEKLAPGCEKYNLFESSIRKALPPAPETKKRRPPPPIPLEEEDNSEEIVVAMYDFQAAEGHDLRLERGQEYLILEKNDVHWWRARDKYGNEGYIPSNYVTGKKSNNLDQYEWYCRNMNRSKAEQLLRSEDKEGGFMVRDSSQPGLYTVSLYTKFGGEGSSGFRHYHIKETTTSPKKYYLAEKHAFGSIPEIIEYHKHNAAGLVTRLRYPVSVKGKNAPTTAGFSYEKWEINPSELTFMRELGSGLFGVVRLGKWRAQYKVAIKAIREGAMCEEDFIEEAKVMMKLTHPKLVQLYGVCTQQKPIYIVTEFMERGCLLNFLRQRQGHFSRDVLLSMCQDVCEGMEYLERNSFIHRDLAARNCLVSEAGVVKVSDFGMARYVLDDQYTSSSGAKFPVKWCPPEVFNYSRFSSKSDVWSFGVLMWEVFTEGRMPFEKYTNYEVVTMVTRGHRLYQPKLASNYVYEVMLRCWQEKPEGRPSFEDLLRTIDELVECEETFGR
# UniProt P29597: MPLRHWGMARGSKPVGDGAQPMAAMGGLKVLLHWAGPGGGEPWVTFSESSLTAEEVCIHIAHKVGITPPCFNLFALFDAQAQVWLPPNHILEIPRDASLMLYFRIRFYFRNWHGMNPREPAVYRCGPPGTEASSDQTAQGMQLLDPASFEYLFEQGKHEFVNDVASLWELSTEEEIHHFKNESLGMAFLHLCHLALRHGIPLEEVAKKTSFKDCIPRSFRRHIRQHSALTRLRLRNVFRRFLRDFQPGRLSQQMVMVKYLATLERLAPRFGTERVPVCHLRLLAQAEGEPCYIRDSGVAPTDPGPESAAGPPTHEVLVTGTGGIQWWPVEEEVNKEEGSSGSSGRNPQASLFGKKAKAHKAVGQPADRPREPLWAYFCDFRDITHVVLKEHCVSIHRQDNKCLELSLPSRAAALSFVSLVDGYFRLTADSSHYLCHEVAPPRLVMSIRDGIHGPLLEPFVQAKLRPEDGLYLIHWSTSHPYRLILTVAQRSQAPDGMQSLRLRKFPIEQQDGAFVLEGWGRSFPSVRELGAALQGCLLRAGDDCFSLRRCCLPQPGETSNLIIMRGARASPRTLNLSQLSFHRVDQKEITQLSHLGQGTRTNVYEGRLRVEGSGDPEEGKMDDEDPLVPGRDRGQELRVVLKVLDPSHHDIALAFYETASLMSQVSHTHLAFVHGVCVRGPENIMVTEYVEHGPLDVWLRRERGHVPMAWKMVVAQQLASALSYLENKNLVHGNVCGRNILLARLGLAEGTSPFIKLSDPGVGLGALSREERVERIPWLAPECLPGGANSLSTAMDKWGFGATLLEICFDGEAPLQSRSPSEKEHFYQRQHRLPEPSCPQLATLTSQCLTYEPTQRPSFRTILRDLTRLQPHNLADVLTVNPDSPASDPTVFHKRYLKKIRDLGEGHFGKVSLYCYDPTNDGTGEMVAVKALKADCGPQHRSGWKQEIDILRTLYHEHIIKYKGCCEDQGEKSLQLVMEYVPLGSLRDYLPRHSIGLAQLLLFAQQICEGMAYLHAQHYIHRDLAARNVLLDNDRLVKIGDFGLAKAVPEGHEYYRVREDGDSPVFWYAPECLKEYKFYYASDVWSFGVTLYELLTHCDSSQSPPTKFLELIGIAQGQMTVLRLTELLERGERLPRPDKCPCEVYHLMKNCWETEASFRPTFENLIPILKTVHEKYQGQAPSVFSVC
# UniProt Q6PHR2: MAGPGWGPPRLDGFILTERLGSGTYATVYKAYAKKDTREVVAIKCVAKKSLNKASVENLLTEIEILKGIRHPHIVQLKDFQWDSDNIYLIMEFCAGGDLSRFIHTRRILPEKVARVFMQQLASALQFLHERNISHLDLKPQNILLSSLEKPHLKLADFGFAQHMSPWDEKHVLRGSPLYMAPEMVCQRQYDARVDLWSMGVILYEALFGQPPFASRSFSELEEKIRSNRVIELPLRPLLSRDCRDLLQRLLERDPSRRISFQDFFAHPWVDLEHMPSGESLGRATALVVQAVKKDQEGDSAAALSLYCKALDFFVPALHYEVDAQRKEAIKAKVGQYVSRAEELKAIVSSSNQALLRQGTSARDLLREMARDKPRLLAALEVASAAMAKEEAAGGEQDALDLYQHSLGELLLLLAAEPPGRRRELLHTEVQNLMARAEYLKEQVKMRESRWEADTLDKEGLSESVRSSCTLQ
# UniProt P07947, whole entry, looked up: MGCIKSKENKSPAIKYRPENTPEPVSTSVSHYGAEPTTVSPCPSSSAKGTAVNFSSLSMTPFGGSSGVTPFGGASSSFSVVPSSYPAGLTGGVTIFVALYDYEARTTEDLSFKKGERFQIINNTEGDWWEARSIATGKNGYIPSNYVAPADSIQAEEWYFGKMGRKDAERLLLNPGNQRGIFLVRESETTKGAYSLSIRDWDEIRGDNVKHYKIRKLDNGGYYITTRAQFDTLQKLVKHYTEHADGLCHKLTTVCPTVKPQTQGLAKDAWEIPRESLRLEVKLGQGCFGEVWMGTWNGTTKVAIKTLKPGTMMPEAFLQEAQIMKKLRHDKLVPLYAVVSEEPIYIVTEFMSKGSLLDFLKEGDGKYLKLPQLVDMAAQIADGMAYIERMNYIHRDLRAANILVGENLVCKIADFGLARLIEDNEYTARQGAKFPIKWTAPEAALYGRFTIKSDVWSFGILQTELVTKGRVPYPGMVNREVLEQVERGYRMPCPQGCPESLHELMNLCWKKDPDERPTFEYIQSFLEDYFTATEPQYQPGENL
# UniProt P10398: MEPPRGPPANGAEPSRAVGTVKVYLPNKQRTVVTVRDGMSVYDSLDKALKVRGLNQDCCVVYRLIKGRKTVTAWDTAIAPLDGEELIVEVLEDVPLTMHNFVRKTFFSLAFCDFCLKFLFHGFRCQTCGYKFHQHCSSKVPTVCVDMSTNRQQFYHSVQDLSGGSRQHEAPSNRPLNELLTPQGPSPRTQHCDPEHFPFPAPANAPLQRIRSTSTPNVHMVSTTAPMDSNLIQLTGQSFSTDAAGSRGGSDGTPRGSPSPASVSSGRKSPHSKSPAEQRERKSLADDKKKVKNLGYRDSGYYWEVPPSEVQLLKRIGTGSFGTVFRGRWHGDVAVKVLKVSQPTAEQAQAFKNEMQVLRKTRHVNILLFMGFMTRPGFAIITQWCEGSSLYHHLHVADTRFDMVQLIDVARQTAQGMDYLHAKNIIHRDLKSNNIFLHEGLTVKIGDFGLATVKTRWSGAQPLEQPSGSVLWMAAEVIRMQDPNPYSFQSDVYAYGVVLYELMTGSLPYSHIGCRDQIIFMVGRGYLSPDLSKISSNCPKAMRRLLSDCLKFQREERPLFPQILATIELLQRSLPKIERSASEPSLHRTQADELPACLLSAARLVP
# UniProt O14965: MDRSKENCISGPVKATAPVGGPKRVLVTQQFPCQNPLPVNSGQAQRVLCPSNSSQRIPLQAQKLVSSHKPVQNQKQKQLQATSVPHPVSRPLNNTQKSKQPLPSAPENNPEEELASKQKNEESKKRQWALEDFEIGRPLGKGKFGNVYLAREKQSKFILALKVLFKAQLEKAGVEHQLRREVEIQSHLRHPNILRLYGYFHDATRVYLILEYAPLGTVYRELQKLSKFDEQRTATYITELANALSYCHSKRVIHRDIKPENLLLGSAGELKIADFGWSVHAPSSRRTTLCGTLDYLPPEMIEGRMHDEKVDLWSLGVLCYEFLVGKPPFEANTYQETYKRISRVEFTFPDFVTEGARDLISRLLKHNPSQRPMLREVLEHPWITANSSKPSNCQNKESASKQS
# UniProt Q9UQB9: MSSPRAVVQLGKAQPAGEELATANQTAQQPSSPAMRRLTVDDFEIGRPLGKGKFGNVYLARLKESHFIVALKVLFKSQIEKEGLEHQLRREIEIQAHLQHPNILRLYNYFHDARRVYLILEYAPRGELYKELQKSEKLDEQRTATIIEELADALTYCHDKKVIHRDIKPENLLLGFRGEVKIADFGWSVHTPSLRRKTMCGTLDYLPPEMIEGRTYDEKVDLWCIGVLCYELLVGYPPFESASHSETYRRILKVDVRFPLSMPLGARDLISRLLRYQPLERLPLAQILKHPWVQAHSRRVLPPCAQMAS
# UniProt P51451: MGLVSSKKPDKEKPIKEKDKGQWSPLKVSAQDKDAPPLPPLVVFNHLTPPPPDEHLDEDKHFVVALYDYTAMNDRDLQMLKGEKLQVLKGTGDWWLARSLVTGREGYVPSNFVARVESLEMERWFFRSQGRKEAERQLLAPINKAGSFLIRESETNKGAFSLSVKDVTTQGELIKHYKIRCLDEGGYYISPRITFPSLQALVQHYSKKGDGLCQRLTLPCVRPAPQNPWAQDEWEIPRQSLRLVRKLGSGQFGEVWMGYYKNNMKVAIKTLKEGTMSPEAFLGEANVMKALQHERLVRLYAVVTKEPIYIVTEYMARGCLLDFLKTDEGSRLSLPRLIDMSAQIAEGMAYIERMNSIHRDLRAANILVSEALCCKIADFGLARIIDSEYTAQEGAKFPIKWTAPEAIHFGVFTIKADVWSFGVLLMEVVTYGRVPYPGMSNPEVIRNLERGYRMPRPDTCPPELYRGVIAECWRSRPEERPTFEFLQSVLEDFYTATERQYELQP
# UniProt P51813: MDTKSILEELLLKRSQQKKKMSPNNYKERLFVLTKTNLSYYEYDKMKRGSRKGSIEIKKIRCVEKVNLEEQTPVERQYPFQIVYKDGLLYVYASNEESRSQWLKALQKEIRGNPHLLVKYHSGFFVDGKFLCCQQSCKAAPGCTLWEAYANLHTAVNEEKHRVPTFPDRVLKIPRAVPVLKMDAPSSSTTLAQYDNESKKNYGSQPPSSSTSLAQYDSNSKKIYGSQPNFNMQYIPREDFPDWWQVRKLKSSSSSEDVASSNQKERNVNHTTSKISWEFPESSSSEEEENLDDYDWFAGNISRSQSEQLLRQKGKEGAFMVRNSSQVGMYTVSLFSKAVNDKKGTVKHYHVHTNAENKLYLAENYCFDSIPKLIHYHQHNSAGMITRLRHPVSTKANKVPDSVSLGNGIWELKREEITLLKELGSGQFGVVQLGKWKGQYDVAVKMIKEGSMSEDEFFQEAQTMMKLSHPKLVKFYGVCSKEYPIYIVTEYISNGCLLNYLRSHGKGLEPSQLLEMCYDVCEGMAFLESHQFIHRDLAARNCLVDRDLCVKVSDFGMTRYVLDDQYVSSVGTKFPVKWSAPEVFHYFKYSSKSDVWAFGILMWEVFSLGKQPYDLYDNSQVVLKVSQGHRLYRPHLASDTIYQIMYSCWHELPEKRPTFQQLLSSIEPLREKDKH
# UniProt P15056, whole entry, looked up: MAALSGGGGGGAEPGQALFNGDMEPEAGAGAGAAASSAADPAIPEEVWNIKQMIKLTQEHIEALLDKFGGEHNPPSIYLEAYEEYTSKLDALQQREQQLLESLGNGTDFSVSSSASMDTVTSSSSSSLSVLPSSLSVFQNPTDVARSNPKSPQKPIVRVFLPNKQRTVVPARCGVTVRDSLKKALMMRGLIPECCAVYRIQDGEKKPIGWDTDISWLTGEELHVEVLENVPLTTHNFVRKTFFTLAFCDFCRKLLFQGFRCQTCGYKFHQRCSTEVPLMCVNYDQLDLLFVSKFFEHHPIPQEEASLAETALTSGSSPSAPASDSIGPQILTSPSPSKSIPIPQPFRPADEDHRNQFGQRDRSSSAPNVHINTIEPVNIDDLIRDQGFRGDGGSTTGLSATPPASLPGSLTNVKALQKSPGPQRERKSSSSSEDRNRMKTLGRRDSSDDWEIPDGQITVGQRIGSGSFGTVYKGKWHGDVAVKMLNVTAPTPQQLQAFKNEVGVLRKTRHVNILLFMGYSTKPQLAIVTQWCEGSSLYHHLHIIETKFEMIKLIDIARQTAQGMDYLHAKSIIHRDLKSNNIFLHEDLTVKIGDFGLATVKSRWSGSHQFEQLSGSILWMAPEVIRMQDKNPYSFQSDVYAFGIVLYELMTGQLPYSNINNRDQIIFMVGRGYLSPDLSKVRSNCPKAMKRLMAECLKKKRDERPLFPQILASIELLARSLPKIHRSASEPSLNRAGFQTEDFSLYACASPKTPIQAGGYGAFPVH
# Structures can show the parent of a compound that is named as a salt. This is one part of the list. The calls rarely recur for the same compound in another form.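 Kinases, fused to nanoluciferase, were expressed in K562 cells; luminescence was measured every 4 h from 2 to 18 h as percent of control (DMSO = 100%, positive control = 0%). A time point is decreased if signal falls significantly (2 sigma). Hits were called by the authors by a rule that is not shown; the count of time points alone does not decide it.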
# Legend:
# Settings in all cases: K562; 2-18 h
# STK38 = STK38 (UniProt Q15208); test: kinase-Nluc reporter destabilization hit call (1 = scored as downregulated) (binary); higher = compound decreases kinase abundance
# SYK = SYK (UniProt P43405); test: as above
# TEC = TEC (UniProt P42680); test: as above
# TYK2 = TYK2 (UniProt P29597); test: as above
# ULK3 = ULK3 (UniProt Q6PHR2); test: as above
# YES1 = YES1 (UniProt P07947); test: as above
# ZAK = ZAK (UniProt Q9NYL2); test: as above
# ZAP70 = ZAP70 (UniProt P43403); test: as above
# ABL1 = ABL1 (UniProt P00519); test: number of time points (of 5) at which kinase-Nluc abundance scored as decreased, DMSO-normalised (count); higher = more persistent destabilization
# AKT1 = AKT1 (UniProt P31749); test: as above
# ALK = ALK (UniProt Q9UM73); test: as above
# ARAF = ARAF (UniProt P10398); test: as above
# AURKA = AURKA (UniProt O14965); test: as above
# AURKB = AURKB (UniProt Q96GD4); test: as above
# AURKC = AURKC (UniProt Q9UQB9); test: as above
# BLK = BLK (UniProt P51451); test: as above
# BMX = BMX (UniProt P51813); test: as above
# BRAF = BRAF (UniProt P15056); test: as above
# BRAF_V600E = test: as above
# BTK = BTK (UniProt Q06187); test: as above
SMILES,kinase-Nluc reporter destabilization hit call (STK38),kinase-Nluc reporter destabilization hit call (SYK),kinase-Nluc reporter destabilization hit call (TEC),kinase-Nluc reporter destabilization hit call (TYK2),kinase-Nluc reporter destabilization hit call (ULK3),kinase-Nluc reporter destabilization hit call (YES1),kinase-Nluc reporter destabilization hit call (ZAK),kinase-Nluc reporter destabilization hit call (ZAP70),number of time points (ABL1),number of time points (AKT1),number of time points (ALK),number of time points (ARAF),number of time points (AURKA),number of time points (AURKB),number of time points (AURKC),number of time points (BLK),number of time points (BMX),number of time points (BRAF),number of time points (BRAF_V600E),number of time points (BTK)
CC(C)CN[C@H]1CS(=O)(=O)C[C@@H]1S(=O)(=O)c1ccc(Cl)cc1 (10 µM),inactive: 0,inactive: 0,inactive: 0,inactive: 0,inactive: 0,inactive: 0,inactive: 0,inactive: 0,1,0,2,0,0,0,0,0,1,0,2,0
Cc1ccc(Oc2nc3cc(-c4ccc5c(ccn5C)c4)c(Cl)cc3[nH]2)cc1C(=O)O (10 µM),inactive: 0,inactive: 0,inactive: 0,inactive: 0,inactive: 0,inactive: 0,inactive: 0,inactive: 0,0,0,0,0,0,0,0,0,0,0,0,0
COc1cc(N2CCC(N3CCN(C)CC3)CC2)ccc1Nc1ncc(Cl)c(Nc2ccccc2P(C)(C)=O)n1 [Brigatinib] (2 µM),inactive: 0,inactive: 0,inactive: 0,inactive: 0,inactive: 0,inactive: 0,inactive: 0,inactive: 0,1,0,0,0,0,0,0,0,0,0,3,0
O=C(NCCCNc1nc(Nc2cccc(NC(=O)N3CCCC3)c2)ncc1I)c1cccs1 (2.5 µM),inactive: 0,inactive: 0,inactive: 0,inactive: 0,inactive: 0,inactive: 0,inactive: 0,inactive: 0,0,0,0,0,0,0,0,0,0,0,0,0
O=C(O)CCc1ccc(O)c(O)c1 [Dihydrocaffeic acid] (10 µM),inactive: 0,inactive: 0,inactive: 0,inactive: 0,inactive: 0,inactive: 0,inactive: 0,inactive: 0,0,0,0,0,0,0,0,0,0,0,0,0
Cc1ccc(-c2c(C(=O)CCl)n(CCCO)c3ncnc(N)c23)cc1 (10 µM),inactive: 0,inactive: 0,inactive: 0,inactive: 0,inactive: 0,inactive: 0,inactive: 0,inactive: 0,3,0,3,0,4,5,0,4,4,0,1,0
CC(=O)c1c(C)c2cnc(Nc3ccc(N4CCN(CCCCNC(=O)COc5cccc6c5C(=O)N(C5CCC(=O)NC5=O)C6=O)CC4)cn3)nc2n(C2CCCC2)c1=O (stereo not given) (10 µM),inactive: 0,inactive: 0,inactive: 0,inactive: 0,inactive: 0,inactive: 0,inactive: 0,inactive: 0,0,0,0,0,0,0,0,0,0,0,0,0
COc1ccc(CC(=O)Nc2nc3c(s2)CCc2ccccc2-3)cc1OC (10 µM),inactive: 0,inactive: 0,inactive: 0,inactive: 0,inactive: 0,inactive: 0,inactive: 0,inactive: 0,0,0,0,0,0,0,0,0,0,0,0,0
N[C@H](Cc1c[nH]c2ccccc12)C(=O)N/N=C/c1ccc2nccnc2c1 [Rhosin (hydrochloride)] (10 µM),inactive: 0,inactive: 0,inactive: 0,inactive: 0,inactive: 0,inactive: 0,inactive: 0,inactive: 0,0,0,0,0,0,0,0,0,0,0,0,0
OCCNC1CCCc2c1[nH]c1ccc(-c3ccccc3)cc21 (stereo not given) (2.5 µM),inactive: 0,inactive: 0,inactive: 0,inactive: 0,inactive: 0,inactive: 0,inactive: 0,inactive: 0,0,0,0,0,3,0,0,0,1,0,2,0
CS(=O)(=O)c1ccc(-c2cnc(N)c(C(=O)Nc3ccccc3)n2)cc1 (10 µM),inactive: 0,inactive: 0,inactive: 0,inactive: 0,inactive: 0,inactive: 0,inactive: 0,inactive: 0,0,0,0,0,0,0,0,0,0,0,0,0
COc1ccc(Cl)cc1NC(=O)Nc1cc(C)nc2ccccc12 (2.5 µM),inactive: 0,inactive: 0,inactive: 0,inactive: 0,inactive: 0,inactive: 0,inactive: 0,inactive: 0,0,0,0,0,0,0,0,0,0,0,0,0
CN1CCN(c2ccc(Nc3ncc4nc(Nc5ccccc5)n([C@@H]5CCN(S(=O)(=O)C6CC6)C5)c4n3)cc2)CC1 (2.5 µM),inactive: 0,inactive: 0,inactive: 0,inactive: 0,inactive: 0,inactive: 0,inactive: 0,inactive: 0,3,0,0,0,0,0,0,3,0,0,0,0
COc1ccc(C2CC(c3ccccc3)=NN2c2ccc(S(N)(=O)=O)cc2)cc1 (stereo not given) (10 µM),inactive: 0,inactive: 0,inactive: 0,inactive: 0,inactive: 0,inactive: 0,inactive: 0,inactive: 0,0,0,0,0,0,0,0,0,0,0,0,0
Cc1cc(-c2cc(OC(=O)c3ccccc3)ccc2Cl)cc2nnc(Nc3ccc(OCCN4CCCC4)cc3)nc12 (0.5 µM),inactive: 0,inactive: 0,inactive: 0,inactive: 0,inactive: 0,inactive: 0,inactive: 0,inactive: 0,0,0,0,0,0,0,0,0,0,0,0,0
O=C1NC(=O)C(=Cc2ccc(-c3ccc(F)cc3)o2)S1 (stereo in doubt) (10 µM),inactive: 0,inactive: 0,inactive: 0,inactive: 0,inactive: 0,inactive: 0,inactive: 0,inactive: 0,0,0,0,0,0,0,0,0,0,0,0,0
Nc1ncc(-c2cccc(N3CCNCC3)c2)cc1C(=O)Nc1ccncc1 [PKC-iota inhibitor 1] (10 µM),inactive: 0,inactive: 0,inactive: 0,inactive: 0,inactive: 0,inactive: 0,inactive: 0,inactive: 0,0,0,0,0,0,0,0,0,0,0,0,0
CC[C@@]1(c2ccccc2)C2=C(CC(C)(C)CC2=O)Nc2[nH]ncc21 (10 µM),inactive: 0,inactive: 0,inactive: 0,inactive: 0,inactive: 0,inactive: 0,inactive: 0,inactive: 0,0,0,0,0,0,0,0,0,0,0,0,0
O=C1NC(=O)/C(=C/c2ccc3c(c2)OC(F)(F)O3)S1 (10 µM),inactive: 0,inactive: 0,inactive: 0,inactive: 0,inactive: 0,inactive: 0,inactive: 0,inactive: 0,0,0,0,0,0,0,0,0,0,0,0,0
CN(CCNc1ccc2ncc(-c3ccc(C(N)=O)cc3)n2n1)C(=O)OC(C)(C)C (10 µM),inactive: 0,inactive: 0,inactive: 0,inactive: 0,inactive: 0,inactive: 0,inactive: 0,inactive: 0,0,0,0,0,0,0,0,0,3,1,0,0

# Part of the list above, as tab-separated lines:
SMILES	kinase-Nluc reporter destabilization hit call (STK38)	kinase-Nluc reporter destabilization hit call (SYK)	kinase-Nluc reporter destabilization hit call (TEC)	kinase-Nluc reporter destabilization hit call (TYK2)	kinase-Nluc reporter destabilization hit call (ULK3)	kinase-Nluc reporter destabilization hit call (YES1)	kinase-Nluc reporter destabilization hit call (ZAK)	kinase-Nluc reporter destabilization hit call (ZAP70)	number of time points (ABL1)	number of time points (AKT1)	number of time points (ALK)	number of time points (ARAF)	number of time points (AURKA)	number of time points (AURKB)	number of time points (AURKC)	number of time points (BLK)	number of time points (BMX)	number of time points (BRAF)	number of time points (BRAF_V600E)	number of time points (BTK)
CC(=O)c1c(C)c2cnc(Nc3ccc(N4CCN(CCCCNC(=O)COc5cccc6c5C(=O)N(C5CCC(=O)NC5=O)C6=O)CC4)cn3)nc2n(C2CCCC2)c1=O (stereo not given) (10 µM)	inactive: 0	inactive: 0	inactive: 0	inactive: 0	inactive: 0	inactive: 0	inactive: 0	inactive: 0	0	0	0	0	0	0	0	0	0	0	0	0
O=C1NC(=O)C(=Cc2ccc(-c3ccc(F)cc3)o2)S1 (stereo in doubt) (10 µM)	inactive: 0	inactive: 0	inactive: 0	inactive: 0	inactive: 0	inactive: 0	inactive: 0	inactive: 0	0	0	0	0	0	0	0	0	0	0	0	0
